PubChem BioAssay AID1259308 | NCATS, 2017
The deposit covers about 59,000 reagents; below is an unselected part. In the full data, about 1,510 (2.6%) got an active call. 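Calls use total luciferase alone and ignore viability, so some active siRNAs may act by altering cell number.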 A number with no mark means an inactive call. The numbers tell different reagents against one gene apart. Not all columns of the deposit are shown.

- Aim: 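Genes whose loss raises luciferase production in HEK293 cells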 (primary screen)
- Cell system: human HEK293 embryonic kidney cells stably expressing firefly luciferase (HEK-CMV-Luc2-Hygro)
- Knock-down reagent: single siRNA against human genes, 0.8 pmol siRNA per well
- Time to read-out: 72 h
- Read-out: 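Reporter luminescence and viable-cell signal on separate replicate plates, given as percent of non-targeting control and median/MAD z-scores, plus per-cell luciferase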
- Scale: total luciferase, z-score: higher = more reporter protein produced
- Rule for the call: 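An siRNA counts as active if its total luciferase robust z-score exceeds 3; genes with two or more such siRNAs out of three were retested with fresh siRNAs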
- Meaning of the calls: active = raised luciferase; inactive = no rise

total luciferase, z-score, by target and reagent
SLC5A7 (GeneID 60482): #1 -0.945; #2 0.175; #3 -0.766
MRFAP1L1 (GeneID 114932): #1 -0.11; #2 1.22; #3 0.387
APOD (GeneID 347): #1 1.09; #2 -0.62; #3 0.648
IL18RAP (GeneID 8807): #1 0.525; #2 -0.28; #3 -0.259
PCDHB1 (GeneID 29930): #1 3.57 (active); #2 0.816; #3 -0.135
TMEM205 (GeneID 374882): #1 0.874; #2 1.66; #3 -1.62
RALYL (GeneID 138046): #1 2.48; #2 1.77; #3 -0.00525
TRIM9 (GeneID 114088): #1 -0.109; #2 -0.85; #3 0.234
LRRN4 (GeneID 164312): #1 1.24; #2 -0.333; #3 -0.0828
HNRNPA1P35 (GeneID 645691): #1 -0.577; #2 -0.537; #3 2.42
CASKIN1 (GeneID 57524): #1 0.319; #2 0.837; #3 0.119
SEZ6L (GeneID 23544): #1 0.739; #2 -0.521; #3 -1.78
GLT8D1 (GeneID 55830): #1 0.904; #2 -0.398; #3 -1.85
